Measurements taken from PMC6555593.
No constants are given. Whether binding was seen depends on the method and setting. In cells and extracts the contact can be indirect. Some binding calls cover weakened binding; strength is not graded here.

Amino acid sequences for entries named in this document (tags omitted). A change or cut given only in a name is not applied to a line headed by its entry.
UniProt Q9Y490: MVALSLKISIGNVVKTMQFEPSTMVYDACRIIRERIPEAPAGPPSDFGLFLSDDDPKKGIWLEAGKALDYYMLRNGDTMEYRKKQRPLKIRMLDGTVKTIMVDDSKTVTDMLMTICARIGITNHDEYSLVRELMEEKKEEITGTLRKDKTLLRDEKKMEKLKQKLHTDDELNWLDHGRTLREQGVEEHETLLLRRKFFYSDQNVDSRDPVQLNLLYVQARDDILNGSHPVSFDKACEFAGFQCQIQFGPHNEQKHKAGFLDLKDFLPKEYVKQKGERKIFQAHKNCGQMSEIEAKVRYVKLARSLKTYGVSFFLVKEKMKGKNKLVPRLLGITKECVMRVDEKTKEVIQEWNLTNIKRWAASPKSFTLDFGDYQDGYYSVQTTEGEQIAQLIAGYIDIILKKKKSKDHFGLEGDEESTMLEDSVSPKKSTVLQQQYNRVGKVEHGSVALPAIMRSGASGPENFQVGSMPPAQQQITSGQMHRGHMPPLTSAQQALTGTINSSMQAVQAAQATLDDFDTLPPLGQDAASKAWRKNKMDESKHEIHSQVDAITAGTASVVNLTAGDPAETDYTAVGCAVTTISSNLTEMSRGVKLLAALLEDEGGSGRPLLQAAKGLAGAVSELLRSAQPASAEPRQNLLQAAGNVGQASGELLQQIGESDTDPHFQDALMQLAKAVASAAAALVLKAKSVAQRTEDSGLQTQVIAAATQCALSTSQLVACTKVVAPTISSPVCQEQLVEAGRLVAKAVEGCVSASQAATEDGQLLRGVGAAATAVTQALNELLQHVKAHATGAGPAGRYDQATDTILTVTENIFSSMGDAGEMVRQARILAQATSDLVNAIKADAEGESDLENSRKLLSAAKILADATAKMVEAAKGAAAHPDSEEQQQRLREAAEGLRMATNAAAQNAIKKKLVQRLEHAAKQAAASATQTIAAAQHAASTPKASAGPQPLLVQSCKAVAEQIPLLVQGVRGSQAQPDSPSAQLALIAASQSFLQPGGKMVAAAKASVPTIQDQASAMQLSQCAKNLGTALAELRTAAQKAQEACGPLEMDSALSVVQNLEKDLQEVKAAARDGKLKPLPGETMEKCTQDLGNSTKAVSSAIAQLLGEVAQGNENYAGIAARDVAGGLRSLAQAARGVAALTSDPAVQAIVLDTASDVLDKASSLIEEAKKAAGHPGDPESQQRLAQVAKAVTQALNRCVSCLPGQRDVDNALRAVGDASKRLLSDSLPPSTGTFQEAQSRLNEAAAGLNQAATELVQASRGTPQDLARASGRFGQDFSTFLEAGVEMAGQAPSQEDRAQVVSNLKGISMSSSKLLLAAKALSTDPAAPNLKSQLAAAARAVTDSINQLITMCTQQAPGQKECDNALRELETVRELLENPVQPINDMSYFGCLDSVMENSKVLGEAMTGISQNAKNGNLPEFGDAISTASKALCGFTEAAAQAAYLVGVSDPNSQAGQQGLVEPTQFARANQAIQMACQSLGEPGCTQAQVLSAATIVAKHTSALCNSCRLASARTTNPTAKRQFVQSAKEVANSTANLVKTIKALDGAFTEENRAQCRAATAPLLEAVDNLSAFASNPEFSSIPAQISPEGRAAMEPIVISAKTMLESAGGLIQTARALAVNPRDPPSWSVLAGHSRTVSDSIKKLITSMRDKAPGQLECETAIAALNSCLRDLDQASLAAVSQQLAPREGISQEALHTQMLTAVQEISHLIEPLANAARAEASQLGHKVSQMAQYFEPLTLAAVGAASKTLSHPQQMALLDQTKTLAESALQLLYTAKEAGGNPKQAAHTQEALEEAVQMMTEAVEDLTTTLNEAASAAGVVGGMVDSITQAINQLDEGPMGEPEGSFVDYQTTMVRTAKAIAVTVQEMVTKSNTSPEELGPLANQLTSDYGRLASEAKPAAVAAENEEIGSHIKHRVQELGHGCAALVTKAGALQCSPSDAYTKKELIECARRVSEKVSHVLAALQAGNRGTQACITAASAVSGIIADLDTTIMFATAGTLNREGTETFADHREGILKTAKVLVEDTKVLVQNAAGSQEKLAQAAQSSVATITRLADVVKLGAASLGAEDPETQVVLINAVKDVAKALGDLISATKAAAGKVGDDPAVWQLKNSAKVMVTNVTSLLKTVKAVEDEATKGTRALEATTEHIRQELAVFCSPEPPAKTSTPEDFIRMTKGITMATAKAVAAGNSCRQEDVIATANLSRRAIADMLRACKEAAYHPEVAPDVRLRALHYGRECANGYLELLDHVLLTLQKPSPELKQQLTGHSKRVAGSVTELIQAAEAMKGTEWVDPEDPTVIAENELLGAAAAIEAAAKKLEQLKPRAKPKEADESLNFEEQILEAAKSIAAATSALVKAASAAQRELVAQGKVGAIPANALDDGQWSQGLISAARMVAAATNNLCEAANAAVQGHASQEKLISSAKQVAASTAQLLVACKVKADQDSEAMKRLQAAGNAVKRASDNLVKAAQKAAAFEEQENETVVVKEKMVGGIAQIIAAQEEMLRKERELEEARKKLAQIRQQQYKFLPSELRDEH
UniProt P05556: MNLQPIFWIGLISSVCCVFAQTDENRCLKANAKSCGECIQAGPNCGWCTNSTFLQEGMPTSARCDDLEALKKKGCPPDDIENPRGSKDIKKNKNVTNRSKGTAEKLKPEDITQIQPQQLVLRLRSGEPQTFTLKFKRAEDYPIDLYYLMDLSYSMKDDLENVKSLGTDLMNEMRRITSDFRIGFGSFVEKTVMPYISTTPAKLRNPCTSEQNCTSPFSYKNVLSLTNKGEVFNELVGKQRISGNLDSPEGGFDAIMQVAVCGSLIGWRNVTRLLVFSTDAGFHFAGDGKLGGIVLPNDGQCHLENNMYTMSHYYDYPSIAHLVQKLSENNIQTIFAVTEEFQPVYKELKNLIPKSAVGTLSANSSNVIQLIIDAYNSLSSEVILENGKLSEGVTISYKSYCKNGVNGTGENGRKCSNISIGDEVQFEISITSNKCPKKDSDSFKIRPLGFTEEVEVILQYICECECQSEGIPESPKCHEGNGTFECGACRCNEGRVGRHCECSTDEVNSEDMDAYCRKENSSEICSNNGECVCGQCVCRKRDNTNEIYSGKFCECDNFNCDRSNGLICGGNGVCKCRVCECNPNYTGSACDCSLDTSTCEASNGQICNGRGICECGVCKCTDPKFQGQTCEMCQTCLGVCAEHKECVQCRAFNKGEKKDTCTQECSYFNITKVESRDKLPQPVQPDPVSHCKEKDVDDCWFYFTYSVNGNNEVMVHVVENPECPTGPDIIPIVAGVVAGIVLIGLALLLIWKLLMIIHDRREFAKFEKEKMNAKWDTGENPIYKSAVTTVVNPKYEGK

Biological target: Talin1 (human (endogenous in hCAFs)) (UniProt Q9Y490)
Assay: co-IP; hCAFs (control shSCR or Ddr2-depleted shDDR2), serum starved, plated on collagen I coated plates or no collagen for 1 hr; lysed in 20 mM Tris pH 7.5, 1% Triton X-100, 0.1% SDS, 150 mM CaCl2; precipitated with talin1 antibody and Protein G Sepharose; blotted for integrin β1

- binding: binds
Substance: β1 Integrin (from UniProt P05556 21-798) (receptor)
